The text below walks through data of publication doi:10.1101/2023.08.16.553618, “Structure of C. elegans TMC-2 complex suggests roles of lipid-mediated subunit contacts in mechanosensory transduction” (bioRxiv, 2023).

In assay [1] the target is T1, C. elegans TMC-2 (transmembrane channel-like protein 2), native, with C-terminal mVenus-3C-3xFLAG (C. elegans) (UniProt Q11069).
T1 sequence (chain, N-glycans at N225 and N748 (density features)): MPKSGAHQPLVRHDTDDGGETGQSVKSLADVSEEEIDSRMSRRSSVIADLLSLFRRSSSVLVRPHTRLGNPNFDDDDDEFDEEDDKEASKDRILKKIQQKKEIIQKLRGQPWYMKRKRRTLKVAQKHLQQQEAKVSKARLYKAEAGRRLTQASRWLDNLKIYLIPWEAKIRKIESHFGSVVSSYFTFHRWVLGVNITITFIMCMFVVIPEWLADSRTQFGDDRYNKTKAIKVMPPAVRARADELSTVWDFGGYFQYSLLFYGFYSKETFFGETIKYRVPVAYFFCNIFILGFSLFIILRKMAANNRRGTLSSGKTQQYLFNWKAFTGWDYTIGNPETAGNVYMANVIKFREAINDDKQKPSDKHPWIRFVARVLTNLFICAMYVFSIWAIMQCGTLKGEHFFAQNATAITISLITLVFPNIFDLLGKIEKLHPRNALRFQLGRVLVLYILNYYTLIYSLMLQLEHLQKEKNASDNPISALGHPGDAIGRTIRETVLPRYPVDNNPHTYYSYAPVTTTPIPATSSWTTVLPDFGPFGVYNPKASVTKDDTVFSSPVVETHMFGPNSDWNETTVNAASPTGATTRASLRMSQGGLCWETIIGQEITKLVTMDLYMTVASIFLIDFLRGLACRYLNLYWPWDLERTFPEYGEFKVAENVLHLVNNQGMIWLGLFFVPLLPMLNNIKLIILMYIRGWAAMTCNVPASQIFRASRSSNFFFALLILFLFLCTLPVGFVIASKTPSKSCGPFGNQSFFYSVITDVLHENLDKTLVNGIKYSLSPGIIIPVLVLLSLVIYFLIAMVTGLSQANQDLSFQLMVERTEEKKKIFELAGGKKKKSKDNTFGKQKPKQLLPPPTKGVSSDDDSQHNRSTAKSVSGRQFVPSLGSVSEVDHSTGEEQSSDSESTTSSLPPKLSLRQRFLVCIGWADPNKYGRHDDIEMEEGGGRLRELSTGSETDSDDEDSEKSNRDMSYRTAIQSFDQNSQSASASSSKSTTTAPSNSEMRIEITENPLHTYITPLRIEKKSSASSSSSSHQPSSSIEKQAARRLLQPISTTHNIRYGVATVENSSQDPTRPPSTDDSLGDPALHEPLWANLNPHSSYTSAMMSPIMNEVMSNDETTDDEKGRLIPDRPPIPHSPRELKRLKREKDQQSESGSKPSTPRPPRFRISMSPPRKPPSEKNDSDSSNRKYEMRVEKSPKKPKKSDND
As to the kind of experiment: affinity purification with mass spectrometry + cryo-EM structure; native TMC-2 complex isolated from tmc2::mVenus worms by anti-FLAG affinity and SEC; proteins sought in the mass spectrometry data and in the cryo-EM map.

The target of assay [2] is T1, C. elegans TMC-2 (transmembrane channel-like protein 2), native, with C-terminal mVenus-3C-3xFLAG (C. elegans). The assay is described as above. This is another data set of the same source.

Read-outs that look alike come from different tables or passages of the source. No constants are given. Whether binding was seen depends on the method and setting. Binding seen in cells or lysates may run through a third protein. These calls come from enrichment with a bait or labelling near it, and not all partners need be listed. A no says only that the protein was not detected with the bait. Sequences can lack the tags named with a protein.

Consider “UNC-44, the worm ortholog of mammalian ankyrin (C. elegans)”, for which the binding entry in assay [1] is listed as “no binding”. arrestin (ARRD-6), C. elegans: the binding entry in assay [1] was “no binding”.

Take “worm ortholog of lipoma HMGIC fusion partner-like 5 (LHFPL5) (C. elegans)”: the binding entry in assay [1] is recorded as “no binding”. For the molecule “worm ortholog of protocadherin-15 (PCDH15) (C. elegans)”, the binding result in assay [1] was “no binding”.

B1: C. elegans TMC-1 (transmembrane channel-like protein 1) (protein, UniProt D3KZG3 1-1285)
chain: MQEAARRASLRKEHTPTNEKFGDLSKQDSLGERASSKLTLDDELYDILYAFGETDAFINKGDKQRETDEDGNPLTRQALLERIRQKKEVIGKLRCQAWSMTRKRRTLKLAQKYLEQHESKVSRSHLYMEEMRKRARLMKRSFSNFKTYLIPWESKIKRIESHFGSVVSSYFTFLRWIVFVNIMITLIALVFVVLPETLADSVANEGRFNRTKTRKQIPANERVHADELAVVWHYDGYLRYSPLFYGYYSDDPFLGNKIKYALPLAYFMVTLTIFAYSFFAILRKMAANARMSKLSGSKAEQYIFNWKLFTGWDYTIGNSETASNTVMAVVIKLRESIADIKKDAHGKFRLLQFSLRVFANIIICAMLGFSIYCIIFAVQKSQVQDDGNLFTKNQVPSVVSTITHVFPMIFDLIGKMENYHPRTALRAHLGRVLILYTVNYITLIFALFEKMTALRDRVNSTSTSSSHRTKRQQGGWNPNMQRPPPYASRAEVRQMSDFLAANTRRFQTVSQRTTRSVTTPFTVAPQFGPFNVNNPNAVFHNGTHSTSFESQILGPKALPIFTPPPRKYPGFTPGNVGQQFGGPDFPRNQVYTKSTPLPRVRTKPPWVYTTTHPPLVQNRAMTTTMSKSAKKGNSKNLDDDILLSNETIQMSEAALRRNHDGHNNDICWETIIGQEIVKLVTMDLIFTILSILVIDLFRGLWIKYCSSWWCWDIETTFPEYGEFKVAENVLHIINNQGMIWLGLFFAPLLPAINNIKLIILMYIRGWAVMTCNVPAREIFRASRSSNFYLGILLIWLLLCTLPVGFVIASMSPSRSCGPFARYQHFYTVVTREIEKRVDQTVLSYIRHIASPGVVIPIILFLILIIYFLFSLVRGLREANTDLQAQLVHERTEEKKKIFELAGGKKNKFEKDRDKKRSNDYIPLIEQRRREPWRQYHEMEADHALASDSSEESDINEDEDDERQPLTAYPLRAIETPPETLQVTAFHPSLGSLIENREMEDEESASGDQLPMIHKSVSFQGPSHMQMRQSISTESCSQISRSAIQVATPEEIRALLRPYLEAKYGIPYQHGIKSFPIDVHTPPNNTPSRRSSKYNSFVSLYEHTRDDHKNFVASTIKETDEDPGKSDKKQTSSKDVAPDFMPWPSADEARALREKMKSKTPLMLTKTTVEEKPKGGKSSESEFRPPVPIHRKYNIQTTEEENEEEETDSAPESSKKRFRISVSPTKTIAPASASRAQHKIVSQASSSSSIPHGRQPDPNKKASLVLPPLRAPRVQFDEDDSPRQID
Consider B1, for which, in assay [2], the binding result was “no binding”.
